Assay results published in article PMC10360407.
No constants are given. Whether binding was seen depends on the method and setting. Binding seen in cells or lysates may run through a third protein. Some results given as binding are weak or reduced against the parent protein; the word gives no strength.

Amino acid sequences for entries named in this document (tags omitted).
UniProt Q3TKT4: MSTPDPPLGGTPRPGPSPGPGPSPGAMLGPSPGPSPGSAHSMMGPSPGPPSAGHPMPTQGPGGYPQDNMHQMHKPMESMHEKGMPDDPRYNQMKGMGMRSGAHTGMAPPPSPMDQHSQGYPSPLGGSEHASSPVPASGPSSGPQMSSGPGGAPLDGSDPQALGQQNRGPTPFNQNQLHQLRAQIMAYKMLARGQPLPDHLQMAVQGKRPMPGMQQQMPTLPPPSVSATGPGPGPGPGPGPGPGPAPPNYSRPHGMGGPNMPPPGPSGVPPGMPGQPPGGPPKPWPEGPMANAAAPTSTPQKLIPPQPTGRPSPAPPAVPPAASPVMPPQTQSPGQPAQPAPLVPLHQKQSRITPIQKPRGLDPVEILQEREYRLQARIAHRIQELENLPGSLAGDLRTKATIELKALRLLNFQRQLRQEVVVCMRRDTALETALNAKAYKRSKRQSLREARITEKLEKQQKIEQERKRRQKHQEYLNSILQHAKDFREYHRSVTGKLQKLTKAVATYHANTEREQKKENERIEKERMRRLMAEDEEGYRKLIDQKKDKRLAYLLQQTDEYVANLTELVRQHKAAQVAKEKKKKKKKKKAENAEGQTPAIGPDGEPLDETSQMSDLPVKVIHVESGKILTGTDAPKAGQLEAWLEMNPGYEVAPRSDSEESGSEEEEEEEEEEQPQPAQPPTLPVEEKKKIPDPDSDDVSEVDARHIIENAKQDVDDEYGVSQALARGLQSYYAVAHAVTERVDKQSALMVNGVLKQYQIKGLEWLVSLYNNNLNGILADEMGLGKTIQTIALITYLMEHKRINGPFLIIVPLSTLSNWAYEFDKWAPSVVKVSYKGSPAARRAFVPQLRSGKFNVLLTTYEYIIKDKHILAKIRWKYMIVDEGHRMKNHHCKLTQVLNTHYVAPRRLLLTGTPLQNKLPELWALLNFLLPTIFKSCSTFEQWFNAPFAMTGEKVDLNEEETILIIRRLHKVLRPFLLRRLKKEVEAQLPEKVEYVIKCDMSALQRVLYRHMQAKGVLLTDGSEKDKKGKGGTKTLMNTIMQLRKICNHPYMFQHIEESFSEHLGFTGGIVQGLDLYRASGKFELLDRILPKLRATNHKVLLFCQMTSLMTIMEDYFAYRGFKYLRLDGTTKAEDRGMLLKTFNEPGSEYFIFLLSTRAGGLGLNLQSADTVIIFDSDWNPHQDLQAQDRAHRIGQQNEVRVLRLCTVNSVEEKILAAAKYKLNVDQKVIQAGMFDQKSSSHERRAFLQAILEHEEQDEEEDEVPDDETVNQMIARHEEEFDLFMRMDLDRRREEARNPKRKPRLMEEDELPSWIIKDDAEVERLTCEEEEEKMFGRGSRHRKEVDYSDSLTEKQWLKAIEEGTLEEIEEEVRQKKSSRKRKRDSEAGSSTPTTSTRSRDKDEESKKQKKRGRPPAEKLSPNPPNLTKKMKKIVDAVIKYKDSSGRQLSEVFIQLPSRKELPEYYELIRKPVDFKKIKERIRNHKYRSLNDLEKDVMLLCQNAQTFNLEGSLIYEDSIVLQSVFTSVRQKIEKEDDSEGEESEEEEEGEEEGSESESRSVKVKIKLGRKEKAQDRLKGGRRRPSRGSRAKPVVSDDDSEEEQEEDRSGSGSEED
UniProt Q02248: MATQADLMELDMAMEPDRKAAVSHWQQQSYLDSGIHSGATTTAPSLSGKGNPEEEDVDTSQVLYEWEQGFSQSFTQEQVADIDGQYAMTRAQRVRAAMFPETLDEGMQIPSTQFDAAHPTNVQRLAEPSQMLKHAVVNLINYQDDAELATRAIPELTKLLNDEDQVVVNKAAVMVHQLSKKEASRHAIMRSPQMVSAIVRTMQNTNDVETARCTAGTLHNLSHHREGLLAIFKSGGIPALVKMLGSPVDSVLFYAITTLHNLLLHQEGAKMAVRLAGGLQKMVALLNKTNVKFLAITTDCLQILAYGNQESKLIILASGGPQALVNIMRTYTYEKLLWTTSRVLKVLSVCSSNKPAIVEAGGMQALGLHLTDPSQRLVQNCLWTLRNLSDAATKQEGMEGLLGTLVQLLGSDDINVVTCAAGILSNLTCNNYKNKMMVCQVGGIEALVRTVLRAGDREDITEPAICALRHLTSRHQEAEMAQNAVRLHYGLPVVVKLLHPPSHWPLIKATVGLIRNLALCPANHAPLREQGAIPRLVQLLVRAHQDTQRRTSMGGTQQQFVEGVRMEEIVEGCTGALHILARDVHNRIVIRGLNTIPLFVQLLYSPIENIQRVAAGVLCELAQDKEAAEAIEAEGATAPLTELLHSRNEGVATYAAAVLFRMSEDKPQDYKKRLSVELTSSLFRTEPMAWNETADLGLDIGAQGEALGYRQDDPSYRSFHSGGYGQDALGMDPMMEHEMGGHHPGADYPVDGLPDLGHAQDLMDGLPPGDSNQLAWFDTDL
UniProt A2BH40: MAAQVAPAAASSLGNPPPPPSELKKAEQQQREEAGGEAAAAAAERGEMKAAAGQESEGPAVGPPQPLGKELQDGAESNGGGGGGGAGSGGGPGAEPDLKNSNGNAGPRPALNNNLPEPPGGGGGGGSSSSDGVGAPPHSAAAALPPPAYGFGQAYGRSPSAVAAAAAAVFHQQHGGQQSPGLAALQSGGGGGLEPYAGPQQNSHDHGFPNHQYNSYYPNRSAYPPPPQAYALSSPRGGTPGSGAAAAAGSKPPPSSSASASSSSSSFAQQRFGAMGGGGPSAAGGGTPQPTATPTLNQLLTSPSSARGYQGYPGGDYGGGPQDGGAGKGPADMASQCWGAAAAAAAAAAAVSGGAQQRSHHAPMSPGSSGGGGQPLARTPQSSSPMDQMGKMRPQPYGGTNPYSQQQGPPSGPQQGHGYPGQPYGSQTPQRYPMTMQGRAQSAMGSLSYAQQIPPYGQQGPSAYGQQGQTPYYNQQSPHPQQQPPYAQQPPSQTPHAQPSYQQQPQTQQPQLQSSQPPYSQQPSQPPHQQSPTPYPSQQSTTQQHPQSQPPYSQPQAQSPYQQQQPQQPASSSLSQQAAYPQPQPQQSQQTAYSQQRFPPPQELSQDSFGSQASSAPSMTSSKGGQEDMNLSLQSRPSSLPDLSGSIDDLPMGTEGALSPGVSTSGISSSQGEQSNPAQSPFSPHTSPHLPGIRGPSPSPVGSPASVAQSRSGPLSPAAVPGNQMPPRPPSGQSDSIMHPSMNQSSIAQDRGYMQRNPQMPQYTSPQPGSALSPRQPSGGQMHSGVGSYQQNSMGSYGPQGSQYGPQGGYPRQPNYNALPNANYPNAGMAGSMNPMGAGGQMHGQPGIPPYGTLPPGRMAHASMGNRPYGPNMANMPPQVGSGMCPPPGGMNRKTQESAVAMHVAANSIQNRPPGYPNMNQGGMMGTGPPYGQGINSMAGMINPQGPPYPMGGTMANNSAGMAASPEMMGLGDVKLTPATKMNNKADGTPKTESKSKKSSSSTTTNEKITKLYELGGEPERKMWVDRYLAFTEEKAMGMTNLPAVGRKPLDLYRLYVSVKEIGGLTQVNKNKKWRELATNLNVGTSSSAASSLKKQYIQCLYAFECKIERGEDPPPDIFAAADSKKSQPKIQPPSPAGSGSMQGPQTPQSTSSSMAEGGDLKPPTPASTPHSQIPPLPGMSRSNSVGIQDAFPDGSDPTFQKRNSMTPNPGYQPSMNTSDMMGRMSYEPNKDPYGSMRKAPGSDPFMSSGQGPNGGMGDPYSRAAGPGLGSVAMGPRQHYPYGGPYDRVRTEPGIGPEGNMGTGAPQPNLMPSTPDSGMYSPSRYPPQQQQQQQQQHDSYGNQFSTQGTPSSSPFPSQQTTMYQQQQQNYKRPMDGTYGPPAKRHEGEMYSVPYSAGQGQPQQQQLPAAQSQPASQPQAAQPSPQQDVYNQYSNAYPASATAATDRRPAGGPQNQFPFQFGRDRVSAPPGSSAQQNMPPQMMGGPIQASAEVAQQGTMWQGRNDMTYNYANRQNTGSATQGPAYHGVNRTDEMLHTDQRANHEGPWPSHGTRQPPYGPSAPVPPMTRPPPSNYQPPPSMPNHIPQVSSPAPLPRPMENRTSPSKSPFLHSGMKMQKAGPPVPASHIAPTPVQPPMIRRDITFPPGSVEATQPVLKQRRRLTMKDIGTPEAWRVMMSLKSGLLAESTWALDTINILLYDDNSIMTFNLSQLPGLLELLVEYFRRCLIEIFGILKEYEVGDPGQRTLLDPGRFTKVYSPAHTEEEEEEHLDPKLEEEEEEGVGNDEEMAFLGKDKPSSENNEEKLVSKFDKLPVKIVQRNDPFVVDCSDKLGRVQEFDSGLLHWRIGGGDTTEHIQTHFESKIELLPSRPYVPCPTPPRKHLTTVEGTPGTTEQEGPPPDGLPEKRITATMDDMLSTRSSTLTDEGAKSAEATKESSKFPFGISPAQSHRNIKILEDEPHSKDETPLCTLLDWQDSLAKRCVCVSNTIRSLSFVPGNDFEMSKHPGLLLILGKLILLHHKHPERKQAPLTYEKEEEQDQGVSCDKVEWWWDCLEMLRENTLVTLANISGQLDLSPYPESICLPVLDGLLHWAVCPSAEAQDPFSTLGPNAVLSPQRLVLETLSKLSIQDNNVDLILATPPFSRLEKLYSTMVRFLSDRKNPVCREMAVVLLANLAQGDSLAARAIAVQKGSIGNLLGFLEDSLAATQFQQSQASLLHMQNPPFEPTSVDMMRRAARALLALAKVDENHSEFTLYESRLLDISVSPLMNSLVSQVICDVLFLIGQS

Tests used:
Test in all cases: co-IP; nuclear fraction (RIPA lysate) of C2C12 myoblasts differentiated for 48 h with DMSO or 50 uM PFI-3; antibodies against β-catenin, BRG1 or BAF250A overnight at 4 °C, protein A beads, washed with RIPA buffer; immunoblot; IgG as control
[1] = biological target: Brahma-Related Gene 1 (BRG1) (mouse (endogenous in C2C12)) (UniProt Q3TKT4)
[2] = biological target: β-catenin (mouse (endogenous in C2C12)) (UniProt Q02248)
[3] = biological target: BAF250A (mouse (endogenous in C2C12)) (UniProt A2BH40)

binding [1] | binding [2] | binding [3] | Substance
binds | binds |  | BAF250A (from UniProt A2BH40 1-2283)
 | binds |  | Brahma-Related Gene 1 (BRG1) (from UniProt Q3TKT4 1-1613)
binds |  | binds | β-catenin (from UniProt Q02248 1-781)
